## Screening data, single-dose tests

The chains behind the UniProt entries cited, without tags or fusion partners. Residues count along the entry.
UniProt A4I591, 1-473: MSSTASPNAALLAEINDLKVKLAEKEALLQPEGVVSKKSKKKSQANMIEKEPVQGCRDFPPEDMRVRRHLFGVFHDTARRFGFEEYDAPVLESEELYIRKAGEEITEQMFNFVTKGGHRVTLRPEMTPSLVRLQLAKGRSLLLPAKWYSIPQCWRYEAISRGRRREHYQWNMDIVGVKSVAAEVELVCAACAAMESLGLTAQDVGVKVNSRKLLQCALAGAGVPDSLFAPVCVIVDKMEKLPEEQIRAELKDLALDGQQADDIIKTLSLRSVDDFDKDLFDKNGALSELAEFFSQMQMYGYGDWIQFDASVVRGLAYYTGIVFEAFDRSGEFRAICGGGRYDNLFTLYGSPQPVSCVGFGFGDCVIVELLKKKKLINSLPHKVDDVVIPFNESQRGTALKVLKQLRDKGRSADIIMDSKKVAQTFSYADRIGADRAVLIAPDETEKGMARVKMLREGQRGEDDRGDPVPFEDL
UniProt Q4DA54, 1-478: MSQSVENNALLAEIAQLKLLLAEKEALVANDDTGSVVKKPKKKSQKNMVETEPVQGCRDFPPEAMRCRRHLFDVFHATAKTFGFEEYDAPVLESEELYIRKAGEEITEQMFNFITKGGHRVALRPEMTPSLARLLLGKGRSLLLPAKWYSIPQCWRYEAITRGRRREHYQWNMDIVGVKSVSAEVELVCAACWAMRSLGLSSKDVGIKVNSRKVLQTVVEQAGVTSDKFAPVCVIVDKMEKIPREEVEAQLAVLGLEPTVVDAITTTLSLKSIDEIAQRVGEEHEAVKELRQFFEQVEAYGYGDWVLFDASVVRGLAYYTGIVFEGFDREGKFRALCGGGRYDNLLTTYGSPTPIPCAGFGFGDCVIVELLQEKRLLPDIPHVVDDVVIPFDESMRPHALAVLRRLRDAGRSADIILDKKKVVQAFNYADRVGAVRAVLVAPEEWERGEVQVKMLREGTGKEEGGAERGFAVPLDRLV

From ChEMBL document CHEMBL3988442, “University of Dundee, Small-Polar-MMV Screening Library” (2021).

A: 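Histidine-tRNA ligase, Leishmania infantum (UniProt A4I591). Enzyme assay of histidyl-tRNA synthetase; the read-out is not stated. Compounds at 30 µM. Higher reads as stronger inhibition (inferred: compounds with an IC50 in retests scored well above the rest). The assay is labelled LdHisRS but filed under L. infantum. Of about 69,000 compounds tested this way, about 410 (0.6%) reached 50% or more in at least one test.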
B: 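Enzyme assay of histidyl-tRNA synthetase; the read-out is not stated. Target: Histidine-tRNA ligase, Trypanosoma cruzi CL Brener (UniProt Q4DA54). Compounds at 30 µM. Higher reads as stronger inhibition (inferred: compounds with an IC50 in retests scored well above the rest). Of about 69,000 compounds tested this way, about 31 (0.045%) reached 50% or more in at least one test.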

Each number is a percent effect as filed. How 0% and 100% were set is not recorded. Most values in the screen are low, and negative values occur. Compounds were drawn at random from those tested, without regard to their results.

| # | compound | A | B |
|---|---|---|---|
| 1 | `CN1CC2(CCN(C(=O)COc3ccc(Cl)cc3Cl)CC2)OC1=O` | 29.58% | -0.6369% |
| 2 | `CCCc1nc(C)c(C(=O)NC2CCN(c3ncccn3)CC2)s1` | 13.13% | 7.097% |
| 3 | `Cc1nc(Nc2ncc(C)s2)cc(C2CCCN2S(C)(=O)=O)n1` (stereo not given) | 7.586% | 4.563% |
| 4 | `c1csc(CN2CCO[C@@H]3CN(C4CCOCC4)C[C@@H]3C2)c1` | -3.419% | 4.908% |
| 5 | `Cn1ncnc1CNC1CCc2cc(Cl)ccc21` (stereo not given) | 8% | 0.9804% |
| 6 | `COCCNC(=O)C(C)n1cc(Br)cn1` (stereo not given) | 2.83% | 1.674% |
| 7 | `COc1ccccc1S(=O)(=O)N1CCC(Oc2cccnn2)CC1` | 3.846% | 5.785% |
| 8 | `Fc1cccc(-c2nccnc2C2CCCNC2)c1` (stereo not given) | 11.72% | 4.563% |
| 9 | `c1ccc(CN2CCn3c(Cn4cncn4)cnc3C2)nc1` | 22% | 9.804% |
| 10 | `CN(C(=O)COCc1ccccc1)C1CCN(CC2CCOC2)CC1` (stereo not given) | 20.59% | 2.646% |
| 11 | `Cc1cc2c(C)cc(O)cc2c(=O)o1` | 2.703% | -0.4975% |
| 12 | `CC(C(=O)Nc1ccc(C#N)cc1)N1CCc2ccccc21` (stereo not given) | 13.22% | 1.02% |
| 13 | `CCOCCN1CCN(CCc2nc3ccccc3c(=O)[nH]2)CC1` | 11.4% | 8.621% |
| 14 | `CC(=O)N1CCN(C(=O)C(C)OCC(F)(F)F)CC1` (stereo not given) | 22.22% | 1.84% |
| 15 | `O=C(NCCOc1ccc(C(F)(F)F)cn1)c1ccoc1` | 14.71% | -2.646% |
| 16 | `COCC1COCCC12CCN(S(=O)(=O)c1ccc(C)cc1)CC2` (stereo not given) | 17.31% | 9.497% |
| 17 | `CCc1nc(CCNC(=O)Nc2cccc(C(=O)NC)c2C)cs1` | -8.036% | 1.667% |
| 18 | `CN1CCC(N2C[C@H](O)C[C@H]2c2nc(Cc3ccccc3)no2)CC1` | -5.556% | 3.96% |
| 19 | `CS(=O)(=O)N(Cc1ccon1)c1ccc(F)cc1` | 2.151% | -1.571% |
| 20 | `Cc1c2c(C(F)F)cc(SCC(=O)O)nc2nn1C` | 14.43% | 3.468% |
| 21 | `c1ccc(OC[C@]23COC[C@H]2CN(C2CCOCC2)C3)nc1` | 4.167% | 2.857% |
| 22 | `O=C1CC[C@H]2CN(Cc3ccc(Cl)s3)CC[C@H]2N1CCc1c[nH]cn1` | 13.33% | -2.479% |
| 23 | `CNC(=O)C1(C)CN(S(=O)(=O)c2cccc(OC)c2)CCO1` (stereo not given) | 4.196% | -2.825% |
| 24 | `CS(=O)(=O)Nc1cccc(C(=O)Nc2ccc3c(c2)C(=O)NC3)c1` | 18.99% | 6.466% |
| 25 | `O=C(Cc1ccccc1)N1CCN(Cc2noc(C3CC3)n2)CC1` | 13.51% | 6.391% |
| 26 | `Cc1ncc(C(=O)NCCNc2ncccn2)s1` | 14.29% | 9% |
| 27 | `CCOC[C@]12COC[C@H]1CN(Cc1ccc(F)c(F)c1)C2` | 17.82% | 7.538% |
| 28 | `CCn1cc2c(n1)C(COC)CN(c1ccc(C)nn1)C2` (stereo not given) | 12.82% | 3.743% |
| 29 | `O=S(=O)(NCc1ccccc1)Nc1ccc(-n2ccnc2)cc1` | 27.87% | -36% |
| 30 | `O=C(CC1CC1)N1CC[C@H]2[C@@H]1CCC(=O)N2Cc1ccncc1` | 28.21% | 7.317% |
| 31 | `CCN(CC)C(CNCc1ccc(OC)c(F)c1)c1ccco1` (stereo not given) | 9.677% | -0.6494% |
| 32 | `COCCCN1CCc2cncnc2C1` | 50.56% | 20.3% |
| 33 | `CCC1(CO)CCCN(C(=O)c2ccc(N3CCN(C)CC3)cc2)C1` (stereo not given) | 8.333% | 2.597% |
| 34 | `Cc1cc(C)nc(N2CCOC(c3cc(CCO)[nH]n3)C2)n1` (stereo not given) | 10.14% | 3.03% |
| 35 | `CCc1[nH]ncc1C(=O)N1CCCC(n2nc(C)nc2C)C1` (stereo not given) | -6.383% | -1.527% |
| 36 | `CN(C)C(=O)C1CCCN1CCCNC(=O)c1cccc2[nH]ncc12` (stereo not given) | 15.66% | 2.439% |
| 37 | `CCN(CC1CN(Cc2ncc[nH]2)CCO1)c1cccnn1` (stereo not given) | 14.56% | 2.075% |
| 38 | `COCCN(CC(F)F)c1cc(C(F)(F)F)nc2ncnn12` | 6.667% | 4.242% |
| 39 | `CCC(=O)NCC(=O)NC(C)c1sc(-c2ccccc2F)nc1C` (stereo not given) | 17.71% | -0.5525% |
| 40 | `CCCN1CCCC2(CCN(S(=O)(=O)c3cc(C)nn3CC)C2)C1=O` (stereo not given) | 14.52% | 2.299% |
| 41 | `CN1C(=O)CC[C@@H]2[C@H]1CCN2S(=O)(=O)Cc1ccccc1` | 9.677% | 0% |
| 42 | `Cc1csc(N2CCCN(C3Cc4ccccc4C3)CC2)n1` | 12.24% | 27.69% |
| 43 | `Cc1ccc2nc(CSCC(=O)Nc3nnc(C(C)C)s3)cc(=O)n2c1` | 2.74% | 7% |
| 44 | `NC(=O)c1ccc(N2CCCCC2)c(NC(=O)c2cc(Br)ccc2F)c1` | 36.79% | 2.51% |
| 45 | `CC(C)(C)OCC1CN(Cc2cccs2)S(=O)(=O)c2cnccc2O1` (stereo not given) | 14.43% | 6.936% |
| 46 | `CNc1[nH]nc(N)c1C(=O)Nc1ccccc1` | -15% | 4.969% |
| 47 | `CN1CCC(NC(=O)Nc2ccc(F)c(Br)c2)C1=O` (stereo not given) | 19.19% | 0.6452% |
| 48 | `Cc1ccc(CNC(=O)CN2C=Nc3ccccc3S2(=O)=O)s1` | 22.73% | -1.515% |
| 49 | `COc1ccc(C[C@H]2CN(C3CCOCC3)CC[C@H]2OCC2CC2)cc1` | 17.48% | 6.796% |
| 50 | `CN(C)C(=O)C1OC2(CCN(C(=O)c3ccco3)CC2)c2ccccc21` (stereo not given) | 28.21% | 4.878% |
| 51 | `O=C(NCC1(O)CCCC1)c1ccc2nsnc2c1` | 21.95% | 10.1% |
| 52 | `CCc1cc(N2CCNCC2)n2nc(C)c(C)c2n1` | 16.67% | -7.955% |
| 53 | `CCC(C)Oc1ccccc1CN1Cc2ncccc2C1=O` (stereo not given) | 20.51% | 8.427% |
| 54 | `Cc1nc2cc(=O)[nH]n2c(C)c1CC(=O)Nc1cnn(C)c1` | 18.28% | 12.5% |
| 55 | `COCCN(Cc1ccc(F)cc1C#N)CC(F)(F)F` | 7.895% | 6.897% |
| 56 | `O=C(CCC(=O)N1CCc2[nH]c3ccccc3c2C1)NCc1ccco1` | 16.48% | 9.278% |
| 57 | `Cc1nnc(NC(=O)CN(C)CC2CCCN2c2cccnn2)s1` (stereo not given) | 1.923% | 8.021% |
| 58 | `O=C(c1c[nH]c(=O)c(Cl)c1)N1CCc2ccccc2C1` | 28.57% | 12.65% |
| 59 | `CSCc1cc(F)ccc1CNCc1cccnc1` | 4.762% | 4.95% |
| 60 | `O=C([C@@H]1CCO[C@@H]2CCN(CC3CCOCC3)C[C@H]21)N1CCCC1` | 18% | 7.216% |
| 61 | `CSc1sc(NC(=O)Cc2c(C)nc(C)[nH]c2=O)nc1C` | 0.8% | -0.3802% |
| 62 | `Cc1ccc(C(=O)N2C[C@@H]3OCCN(CC4CCCC4)[C@@H]3C2)cn1` | 18% | 14.71% |
| 63 | `CCc1ccc(NC(=O)c2n[nH]c(-n3cnnc3)n2)cc1` | 8.621% | 5.217% |
| 64 | `CC(C)c1nc(C(=O)N2CCc3ccccc3C2C(=O)O)cs1` (stereo not given) | 8.901% | 5.882% |
| 65 | `COCCO[C@H]1CCN(c2cc(OC)ncn2)[C@H]1Cc1ccncc1` | 14.04% | 4.372% |
| 66 | `CC(C)NC(=O)C1CN(Cc2ccsc2)Cc2ccnn2C1` (stereo not given) | 21.05% | 6.452% |
| 67 | `COCc1nc(CNc2cccc(-c3nc(C)c(C)o3)c2)cs1` | 0% | 1.19% |
| 68 | `Cc1[nH]c2ccc(CNC(=O)c3ccc(CN4CCCC4)o3)cc2c1C` | 0.8333% | 7.729% |
| 69 | `Cc1ccc(C(=O)Nc2cc(C(C)C)n[nH]2)cn1` | 13.7% | 3.817% |
| 70 | `C[C@H]1CC[C@H](C(=O)N2CCC(n3cc(C4(O)CCCC4)nn3)CC2)CC1` | 11.43% | 5.195% |
| 71 | `CCn1c(C2CCN(C(=O)CCc3cc(Cl)no3)CC2)nn(C)c1=O` | 16.67% | 7.921% |
| 72 | `CNCC(=O)N1CCC(c2cccc(Oc3ccccc3)n2)CC1` | 12.77% | 10.15% |
| 73 | `Cc1ccc(S(=O)(=O)N2CCn3nc(C)nc3C2)c(Cl)c1` | 9.244% | 3.922% |
| 74 | `Cc1ccc(C(C(=O)O)N2CCCN(Cc3ccccn3)CC2)c(F)c1` (stereo not given) | 16.67% | 1.02% |
| 75 | `CC(C)CCC(=O)N(C)CC(=O)Nc1ccc(Br)cn1` | 13.79% | 6.78% |
| 76 | `CC(=O)N1CCCCC[C@@H]2[C@@H]1[C@H](c1cccc(F)c1)CN2CCC(N)=O` | 13.04% | 6.818% |
| 77 | `CC(NC(=O)CSCC(N)=O)c1ccc(Oc2ccccc2)cc1` (stereo not given) | 10.71% | 0% |
| 78 | `COC(=O)C(c1cc(F)ccc1F)N(C)C(=O)c1cccnc1O` (stereo not given) | 10.81% | 1.88% |
| 79 | `O=C([C@@H]1CC[C@@H]2[C@@H](CCN2c2ncccn2)O1)N1CCCO1` | 30% | -2.299% |

Some entries from above, unchanged:

- CCn1c(C2CCN(C(=O)CCc3cc(Cl)no3)CC2)nn(C)c1=O | A: 16.67%; B: 7.921%
- CCOC[C@]12COC[C@H]1CN(Cc1ccc(F)c(F)c1)C2 | A: 17.82%; B: 7.538%
- Cc1cc(C)nc(N2CCOC(c3cc(CCO)[nH]n3)C2)n1 (stereo not given) | A: 10.14%; B: 3.03%
- CC(C)CCC(=O)N(C)CC(=O)Nc1ccc(Br)cn1 | A: 13.79%; B: 6.78%